Laboratory results published in patent US20220135665A1.
Results are given in words; binding and its absence hold for the method and conditions named. A result given as binding can be weak or reduced; the word gives no strength. One block for each binder: values may come before it.

How the values were obtained:
[1] = target: recombinant human VEGF165 protein (human); assay: phage ELISA on coated recombinant human VEGF165
[2] = target: recombinant human VEGF165 protein (human); assay: competition ELISA, VEGF165 coated
[3] = target: recombinant human VEGF165 protein (human); assay: ELISA, VEGF165 coated at 0.1, 1 and 10 ug/mL, Fab 2 ug/mL
[4] = target: recombinant human VEGF165 protein (human); assay: ELISA

binding [1]: binds
B1: VEGF165-R988 scFv antibody (scFv)
scFv: ELDLTQTPSPVSAAVGGTVTINCQSSQTIYANRRLAWYQQKPGQPPKLLIYGASTLASGVPSRFKGSGSGTQFTLTISGVQCDDAATYYCAGYKSYDGDDVGFGGGTEVVVKSSGGGGSGGGGGGSSRSSQSVEESGGRLVTPGTPLTLTCTVSGIDLSSYAISWVRQAPGKGLEYIGYIWNAGNTYYASWAKGRFTISKTSTTVDLKITSPTTEDTATYFCARGTLGDYNGMDPWGPGTLVTVSS

binding [2]: binds
B2: VEGF165 rabbit antibody VEGF-R988 (antibody, rabbit IgG1, V domains shown)
VH: QSVEESGGRLVTPGTPLTLTCTVSGIDLSSYAISWVRQAPGKGLEYIGYIWNAGNTYYASWAKGRFTISKTSTTVDLKITSPTTEDTATYFCARGTLGDYNGMDPWGPGTLVTVSS
VL: ELDLTQTPSPVSAAVGGTVTINCQSSQTIYANRRLAWYQQKPGQPPKLLIYGASTLASGVPSRFKGSGSGTQFTLTISGVQCDDAATYYCAGYKSYDGDDVGFGGGTEVVVK

binding [3]: binds | binding [4]: binds
B3: humanized antibody VEGF-H988 Fab fragment (Fab, V domains shown)
VH: QSVQESGPGLVKPSETLSLTCTVSGIDLSSYAISWVRQPPGKGLEYIGYIWNDLFTYYASWAKGRVTISVDTSKNQVDLKLSSVTAADTAVYFCARGTLGDYGGMDPWGQGTLVTVSS
VL: ELQLTQSPSSLSASVGDRVTITCQSSKFLWQGRRLAWYQQKPGKVPKLLIYGASTLASGVPSRFKGSGSGTDFTLTISSLQPEDVATYYCAGYKSYDGDVVGFGGGTKVEIKR
